Results deposited as PubChem BioAssay AID743121 (NCATS, 2013)
Assay: 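Genes whose silencing strengthens cell killing by camptothecin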 (primary screen). Cell system: MDA-MB-231 cells, a human breast cancer line. Reagents: single siRNA against human genes, 20 nM siRNA (0.8 pmol per well). Timing: 120 h (drug added 48 h after transfection, read 72 h later). Challenge: camptothecin 20 nM (about EC30) for 72 h; vehicle 0.1% DMSO in parallel plates. Detection: 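Cell viability by ATP luminescence (CellTiter-Glo) as % of non-targeting siRNA wells, and the log2 ratio of viability without drug over viability with camptothecin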. Scale: log2 vehicle/camptothecin viability: higher = stronger sensitisation to camptothecin. Hit rule: 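Each gene scored by redundant siRNA activity (RSA) over its individual siRNA ratios; a gene is called active at p < 0.001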.
This is a random part of about 26,000 reagents. 167 of them (0.63%) count as active. 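Calls are per gene from RSA p-values that are not deposited; an individual active-marked siRNA can sensitise only weakly.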 Further read-outs or replicates are left out here.

log2 vehicle/camptothecin viability, by target gene and reagent
KREMEN1 (kringle containing transmembrane protein 1): SID164542543 -0.0314 inactive; SID164542545 0.437 inactive; SID164542551 0.956 inactive
DHODH (dihydroorotate dehydrogenase (quinone)): SID164361509 -0.502 inactive; SID164361511 -0.304 inactive; SID164361514 -0.46 inactive
PTPN1 (protein tyrosine phosphatase non-receptor type 1): SID164383837 0.0023 inactive; SID164383838 -0.367 inactive; SID164383839 -0.118 inactive; SID164383840 -0.206 inactive
CDK5R1 (cyclin dependent kinase 5 regulatory subunit 1): SID164400275 -0.232 inactive; SID164400276 0.0337 inactive; SID164400277 0.0935 inactive; SID164400279 0.126 inactive
LARGE1 (LARGE xylosyl- and glucuronyltransferase 1): SID164402458 -0.0802 inactive; SID164402461 0.0875 inactive; SID164402462 -0.549 inactive
ADA2 (adenosine deaminase 2): SID164475607 0.348 inactive; SID164475609 0.035 inactive; SID164475610 -0.34 inactive
GPR137 (G protein-coupled receptor 137): SID164491328 -0.134 inactive; SID164491331 -0.364 inactive; SID174315961 -0.515 inactive; SID174315969 0.362 inactive
EPB41 (erythrocyte membrane protein band 4.1): SID164363385 0.0836 inactive; SID164363387 -0.227 inactive; SID164363389 0.187 inactive; SID164363390 0.0513 inactive
ALPL (alkaline phosphatase, biomineralization associated): SID164353138 -0.478 inactive; SID164353141 -0.384 inactive; SID164353143 0.69 inactive; SID164353144 -0.528 inactive
CDK8 (cyclin dependent kinase 8): SID164357801 0.261 inactive; SID164357806 -0.422 inactive; SID164357807 0.0639 inactive; SID164357812 -0.415 inactive

Targets listed so far whose gene name starts with E or e (4):
log2 vehicle/camptothecin viability, by target gene and reagent
EPB41 (erythrocyte membrane protein band 4.1): SID164363385 0.0836 inactive; SID164363387 -0.227 inactive; SID164363389 0.187 inactive; SID164363390 0.0513 inactive

The list goes on:
log2 vehicle/camptothecin viability, by target gene and reagent
DNPEP (aspartyl aminopeptidase): SID164448739 -0.489 inactive; SID164448741 -0.105 inactive; SID164448743 -0.756 inactive
DHRSX (dehydrogenase/reductase X-linked): SID164586681 0.0423 inactive; SID164586682 -0.231 inactive; SID164586683 -0.126 inactive; SID164586684 -0.437 inactive
PRDM8 (PR/SET domain 8): SID164492099 -0.0647 inactive; SID164492100 -0.205 inactive; SID164492101 0.00243 inactive; SID164492102 -0.222 inactive
SYNE1 (spectrin repeat containing nuclear envelope protein 1): SID164447408 -0.32 inactive; SID164447409 0.262 inactive; SID164447412 0.255 inactive; SID164447415 -0.0544 inactive
GABRG2 (gamma-aminobutyric acid type A receptor subunit gamma2): SID164365778 -0.326 inactive; SID164365779 0.0393 inactive; SID164365780 -0.366 inactive; SID164365783 0.0697 inactive
PSENEN (presenilin enhancer, gamma-secretase subunit): SID164487276 0.109 inactive; SID164487277 -0.0751 inactive; SID164487278 -0.281 inactive
CD302 (CD302 molecule): SID164407541 -0.46 inactive; SID164407544 -0.429 inactive; SID164407549 -0.449 inactive; SID164407551 0.0359 inactive
EHMT2 (euchromatic histone lysine methyltransferase 2): SID164414269 0.111 inactive; SID164414270 -0.429 inactive; SID164414272 -0.252 inactive; SID164414275 -0.229 inactive
KLK14 (kallikrein related peptidase 14): SID164469628 0.0749 inactive; SID164469630 0.173 inactive; SID164469631 1.12 inactive; SID164469632 -0.295 inactive
